Results deposited as PubChem BioAssay AID743121 (NCATS, 2013).

Assay: 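Partners whose loss is lethal together with topoisomerase I blockade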 (primary screen)
Cells: MDA-MB-231 cells, a human breast cancer line
Reagents: single siRNA against human genes, 20 nM siRNA (0.8 pmol per well)
Timing: 120 h (drug added 48 h after transfection, read 72 h later)
Treatment: camptothecin 20 nM (about EC30) for 72 h; vehicle 0.1% DMSO in parallel plates
Detection: 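CellTiter-Glo ATP signal, scaled to control siRNA as percent viability; sensitisation given as log2 of untreated divided by camptothecin-treated viability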
Reading the numbers: log2 vehicle/camptothecin viability: higher = stronger sensitisation to camptothecin; viability with camptothecin and viability without drug: higher = more viable cells
Call rule: 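Each gene scored by redundant siRNA activity (RSA) over its individual siRNA ratios; a gene is called active at p < 0.001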
Shown is one part, drawn at random, of about 26,000 reagents. In the full data, 167 (0.63%) are marked active. 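Calls are per gene from RSA p-values that are not deposited; an individual active-marked siRNA can sensitise only weakly.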 The numbers tell different reagents against one gene apart.

Target gene,reagent,log2 vehicle/camptothecin viability,viability with camptothecin (% of control),viability without drug (% of control),Outcome
"COQ3 (coenzyme Q3, methyltransferase)",1,-0.284,101,82.7,inactive
"COQ3 (coenzyme Q3, methyltransferase)",2,0.292,80.4,98.4,inactive
"COQ3 (coenzyme Q3, methyltransferase)",3,0.107,54.3,58.4,inactive
"COQ3 (coenzyme Q3, methyltransferase)",4,0.0387,83.8,86.1,inactive
CA12 (carbonic anhydrase 12),1,0.707,43,70.2,inactive
CA12 (carbonic anhydrase 12),2,0.0339,64.2,65.8,inactive
CA12 (carbonic anhydrase 12),3,1.06,43.8,91.4,inactive
CA12 (carbonic anhydrase 12),4,0.279,72.8,88.3,inactive
LAT (linker for activation of T cells),1,-0.589,85,56.5,inactive
LAT (linker for activation of T cells),2,-0.339,77.9,61.6,inactive
LAT (linker for activation of T cells),3,-0.168,120,107,inactive
LAT (linker for activation of T cells),4,-0.229,108,91.8,inactive
GLI2 (GLI family zinc finger 2),1,-0.796,108,62.3,inactive
GLI2 (GLI family zinc finger 2),2,-0.199,77.7,67.7,inactive
GLI2 (GLI family zinc finger 2),3,0.0539,84.9,88.1,inactive
GLI2 (GLI family zinc finger 2),4,-0.0409,58.9,57.2,inactive
TRAF3IP3 (TRAF3 interacting protein 3),1,0.301,79.3,97.7,inactive
TRAF3IP3 (TRAF3 interacting protein 3),2,0.212,71.2,82.5,inactive
TRAF3IP3 (TRAF3 interacting protein 3),3,0.0477,43.8,45.3,inactive
TRAF3IP3 (TRAF3 interacting protein 3),4,0.848,22.6,40.7,inactive

Quoted from the entries so far, 2 entries:
Target gene,reagent,log2 vehicle/camptothecin viability,viability with camptothecin (% of control),viability without drug (% of control),Outcome
GLI2 (GLI family zinc finger 2),3,0.0539,84.9,88.1,inactive
GLI2 (GLI family zinc finger 2),4,-0.0409,58.9,57.2,inactive

The list goes on:
Target gene,reagent,log2 vehicle/camptothecin viability,viability with camptothecin (% of control),viability without drug (% of control),Outcome
NOP16 (NOP16 nucleolar protein),1,-0.384,97.2,74.5,inactive
NOP16 (NOP16 nucleolar protein),2,-0.596,81.9,54.2,inactive
FUT1 (fucosyltransferase 1 (H blood group)),1,-0.335,82.4,65.3,inactive
FUT1 (fucosyltransferase 1 (H blood group)),2,-0.311,75,60.4,inactive
FUT1 (fucosyltransferase 1 (H blood group)),3,0.00822,85.4,85.9,inactive
FUT1 (fucosyltransferase 1 (H blood group)),4,-0.0798,52.5,49.7,inactive
DPYS (dihydropyrimidinase),1,0.00673,20.5,20.6,inactive
DPYS (dihydropyrimidinase),2,-0.125,103,94.6,inactive
DPYS (dihydropyrimidinase),3,-0.013,122,121,inactive
DPYS (dihydropyrimidinase),4,-0.124,112,103,inactive
